Reference: PMC12071194
No constants are given. Whether binding was seen depends on the method and setting. In cells and extracts the contact can be indirect. Some binding calls cover weakened binding; strength is not graded here.

The chains behind the UniProt entries cited, without tags or fusion partners.
UniProt O60238: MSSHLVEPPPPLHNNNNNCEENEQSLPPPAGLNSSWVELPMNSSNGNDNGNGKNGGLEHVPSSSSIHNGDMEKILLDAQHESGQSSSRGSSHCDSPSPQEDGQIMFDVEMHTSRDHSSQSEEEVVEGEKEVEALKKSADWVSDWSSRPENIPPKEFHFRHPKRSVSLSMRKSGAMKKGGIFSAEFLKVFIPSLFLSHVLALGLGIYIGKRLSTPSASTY

Target: mCherry-NIX (WT) (UniProt O60238)
Test: co-IP; RFP-trap magnetic agarose on lysates (0.5% triton X-100 buffer) of B/N DKO HeLa cells expressing mCherry-BNIP3 or mCherry-NIX; cells cultured with 1 mM DFP for 12 h, then 12 h more with 100 nM bafilomycin A1 and DFP; immunoblot

B1: WIPI2 (protein, UniProt Q9Y4P8 1-454)
chain: MNLASQSGEAGAGQLLFANFNQDNTEVKGASRAAGLGRRAVVWSLAVGSKSGYKFFSLSSVDKLEQIYECTDTEDVCIVERLFSSSLVAIVSLKAPRKLKVCHFKKGTEICNYSYSNTILAVKLNRQRLIVCLEESLYIHNIRDMKVLHTIRETPPNPAGLCALSINNDNCYLAYPGSATIGEVQVFDTINLRAANMIPAHDSPLAALAFDASGTKLATASEKGTVIRVFSIPEGQKLFEFRRGVKRCVSICSLAFSMDGMFLSASSNTETVHIFKLETVKEKPPEEPTTWTGYFGKVLMASTSYLPSQVTEMFNQGRAFATVRLPFCGHKNICSLATIQKIPRLLVGAADGYLYMYNLDPQEGGECALMKQHRLDGSLETTNEILDSASHDCPLVTQTYGAAAGKGTYVPSSPTRLAYTDDLGAVGGACLEDEASALRLDEDSEHPPMILRTD
binding: binds
